Measurements from publication PMC4822341 (Cell Discovery, 2015).

System: RAW264.7 cells
Experiment: Gene expression (microarray and quantitative PCR) in LPS-stimulated RAW264.7 cells
Assay type: cell-based, mouse
Conditions: RAW264.7, LPS 1 μg ml^-1, steroid 100 nM, microarray
Experimental: Mouse macrophage RAW264.7 cells were grown in 6-well plates to reach 80% confluence. The cells were pretreated with different steroids at 100 nM 1 h before overnight induction of inflammation by 1 μg ml^–1 LPS. Total RNA was isolated using a Qiagen mini RNA extraction kit (Valencia, CA, USA). Complementary DNA was synthesized from total RNA with an Invitrogen Superscript cDNA synthesis kit (Carlsbad, CA, USA). Target genes were quantified with a Power SYBR Green Real-Time PCR kit (Carlsbad, CA, USA) (ABI) in a StepOnePlus real-time PCR instrument (Applied Biosystems, Carlsbad, CA, USA). In every case, GAPDH (glyceraldehyde-3-phosphate dehydrogenase) was used as an internal control and data were analyzed by the ΔΔCt method. The specificity of target primers was tested both in a dissociation (melting) curve (Supplementary Figure S4) and against a water control. Primer sequence information is included in Supplementary Figure S4.
RAW264.7 cells were treated with designated steroids at 100 nM 1 h before overnight LPS stimulation of inflammation. Each treatment was duplicated. The following day, RNA samples were isolated using a Qiagen mini RNA extraction kit and applied to the Agilent Whole Mouse Genome 8x60K gene expression platform. Data were analyzed by the limma package in R program. Heat maps were generated by the HeatMap 2 package. […]

C[C@@H]1C[C@H]2[C@@H]3CCC4=CC(=O)C=C[C@]4(C)[C@@]3(F)[C@@H](O)C[C@]2(C)[C@@]1(O)C(=O)CO [DEX, dexamethasone, reference compound]
genes induced more than twofold: 574
genes repressed more than twofold: 710
